The record followed here is patent US7824687B2 (Sloan-Kettering Institute For Cancer Research, priority 1999, dated 2010).

A short description of the data set: general procedure: solution-phase peptide synthesis.

“Fmoc-Nle(α-TF)-Nle(α-TF)-Nle(α-TF)-Gly-OtBu” had a step yield (coupling step) of 88%.
On the same count and under the same terms, the same measure for “Fmoc-Nle(α-Tn)-Nle(α-Tn)-Nle(α-Tn)-Gly-OtBu”: 78%; for “Cbz-Gly-Nle(α-Tn)-Nle(α-Tn)-Nle(α-Tn)-Gly-OtBu”: 80%.
The substance “H-Gly-Nle(α-Tn)-Nle(α-Tn)-Nle(α-Tn)-Gly-OtBu” registered a step yield (late stage modification step) of 77%.
